Further values from the same series stand in other lists.
System: moderate-to-severe chronic spontaneous urticaria (CSU)
Test: Phase 2 CSU study: itch severity score over 7 days (ISS7)
Assay type: in vivo, human
Conditions: for Change from Baseline in ISS7 at Week 12, LS Mean Diff vs. placebo / Change from Baseline in ISS7 at Week 12, Mean / Change from Baseline in ISS7 at Week 12, LS Mean: 400 mg TID, Omalizumab-naïve population; for ISS7 % Change difference for rilzabrutinib vs. placebo LS Mean (95% CI) / ISS7 % Change from baseline LS Mean (SE) / ISS7 Change difference for rilzabrutinib vs. placebo LS Mean (95% CI) / ISS7 Change from baseline LS Mean (SE): Omalizumab-Naïve, outlier removed
Excerpt: The study comprises a 12 week, randomized, double-blind, placebo-controlled, multi-center, dose-ranging efficacy and safety phase, followed by a 40 week open label extension (OLE) phase (see FIG. 1). The study consists of three phases and an optional OLE phase. […] Clinically, CSU is characterized by the spontaneous and recurrent appearance of pruritic hives. The proposed primary endpoints were the UAS7 at Week 12 in EU and EU reference countries and the ISS7 in the US. Regardless of where a participant was from, all assessments were the same. The UAS7 score is a composite score containing both the HSS7 and the ISS7. This allowed a global assessment of the two key components of urticaria: hives and itch. […] The UAS is a validated PRO measure. […] The daily UAS scores range from 0 to 6 point/day. […] Patients were to complete the UAS using the e-diary. […] The following secondary endpoints were to be analyzed using the same approach as for the primary endpoint: • Change from baseline in UAS7 at Week 4 • Change from baseline in UAS7 at Week 12 (for US and US reference countries) • Change from baseline in ISS7 at Week 12 (except US and US reference countries) • Change from baseline in HSS7 at Week 12

[1] = Baseline weight (kg) ≥72.9 (Median)

SMILES: CC(C)(C=C(C#N)C(=O)N1CCC[C@@H](n2nc(-c3ccc(Oc4ccccc4)cc3F)c3c(N)ncnc32)C1)N1CCN(C2COC2)CC1 [rilzabrutinib, (R)-2-[3-[4-amino-3-(2-fluoro-4-phenoxy-phenyl)pyrazolo[3,4-d]pyrimidin-1-yl]piperidine-1-carbonyl]-4-methyl-4-[4-(oxetan-3-yl)piperazin-1-yl]pent-2-enenitrile]
- Change from Baseline in ISS7 at Week 12, LS Mean Diff vs. placebo [1]: −4.15
- Change from Baseline in ISS7 at Week 12, Mean [1]: −9.44
- Change from Baseline in ISS7 at Week 12, LS Mean (Baseline weight (kg) ≥90): −10.90
- Change from Baseline in ISS7 at Week 12, LS Mean Diff vs. placebo (Baseline weight (kg) ≥90): −5.76
- Change from Baseline in ISS7 at Week 12, Mean (Baseline weight (kg) ≥90): −9.89
- Change from Baseline in ISS7 at Week 12, LS Mean (Gender Female): −9.80
- Change from Baseline in ISS7 at Week 12, LS Mean Diff vs. placebo (Gender Female): −3.50
- Change from Baseline in ISS7 at Week 12, Mean (Gender Female): −10.96
- Change from Baseline in ISS7 at Week 12, LS Mean (Gender Male): −6.50
- Change from Baseline in ISS7 at Week 12, LS Mean Diff vs. placebo (Gender Male): −2.95
- ISS7 % Change difference for rilzabrutinib vs. placebo LS Mean (95% CI) (400 mg BID, Week 1): −23.81 (−42.23, −5.39) %
- ISS7 % Change from baseline LS Mean (SE) (400 mg BID, Week 1): −34.00 (5.73) %
- ISS7 Change difference for rilzabrutinib vs. placebo LS Mean (95% CI) (400 mg BID, Week 1): −3.14 (−5.82, −0.46)
- ISS7 Change from baseline LS Mean (SE) (400 mg BID, Week 1): −5.10 (0.83)
- ISS7 % Change difference for rilzabrutinib vs. placebo LS Mean (95% CI) (400 mg BID, Week 2): −17.64 (−32.37, −2.92) %
- ISS7 % Change from baseline LS Mean (SE) (400 mg BID, Week 2): −36.28 (5.56) %
- ISS7 Change difference for rilzabrutinib vs. placebo LS Mean (95% CI) (400 mg BID, Week 2): −2.27 (−4.47, −0.08)
- ISS7 Change from baseline LS Mean (SE) (400 mg BID, Week 2): −5.52 (0.83)
- ISS7 % Change difference for rilzabrutinib vs. placebo LS Mean (95% CI) (400 mg BID, Week 3): −20.18 (−35.09, −5.26) %
- ISS7 % Change from baseline LS Mean (SE) (400 mg BID, Week 3): −41.02 (5.61) %
- ISS7 Change difference for rilzabrutinib vs. placebo LS Mean (95% CI) (400 mg BID, Week 3): −2.87 (−5.12, −0.61)
- ISS7 Change from baseline LS Mean (SE) (400 mg BID, Week 3): −6.51 (0.85)
- ISS7 % Change difference for rilzabrutinib vs. placebo LS Mean (95% CI) (400 mg BID, Week 4): −20.20 (−36.06, −4.35) %
- ISS7 % Change from baseline LS Mean (SE) (400 mg BID, Week 4): −43.56 (5.98) %
- ISS7 Change difference for rilzabrutinib vs. placebo LS Mean (95% CI) (400 mg BID, Week 4): −2.86 (−5.26, −0.46)
- ISS7 Change from baseline LS Mean (SE) (400 mg BID, Week 4): −6.96 (0.91)
- ISS7 % Change difference for rilzabrutinib vs. placebo LS Mean (95% CI) (400 mg BID, Week 5): −8.21 (−23.48, 7.06) %
- ISS7 % Change from baseline LS Mean (SE) (400 mg BID, Week 5): −42.26 (5.73) %
- ISS7 Change difference for rilzabrutinib vs. placebo LS Mean (95% CI) (400 mg BID, Week 5): −0.91 (−3.31, 1.48)
- ISS7 Change from baseline LS Mean (SE) (400 mg BID, Week 5): −6.55 (0.90)
- ISS7 % Change difference for rilzabrutinib vs. placebo LS Mean (95% CI) (400 mg BID, Week 6): −13.16 (−29.74, 3.43) %
- ISS7 % Change from baseline LS Mean (SE) (400 mg BID, Week 6): −41.38 (6.22) %
- ISS7 Change difference for rilzabrutinib vs. placebo LS Mean (95% CI) (400 mg BID, Week 6): −1.72 (−4.30, 0.87)
- ISS7 Change from baseline LS Mean (SE) (400 mg BID, Week 6): −6.56 (0.97)
- ISS7 % Change difference for rilzabrutinib vs. placebo LS Mean (95% CI) (400 mg BID, Week 7): −17.21 (−33.40, −1.02) %
- ISS7 % Change from baseline LS Mean (SE) (400 mg BID, Week 7): −47.03 (6.06) %
- ISS7 Change difference for rilzabrutinib vs. placebo LS Mean (95% CI) (400 mg BID, Week 7): −2.36 (−4.85, 0.14)
- ISS7 Change from baseline LS Mean (SE) (400 mg BID, Week 7): −7.50 (0.93)
- ISS7 % Change difference for rilzabrutinib vs. placebo LS Mean (95% CI) (400 mg BID, Week 8): −20.13 (−37.11, −3.16) %
- ISS7 % Change from baseline LS Mean (SE) (400 mg BID, Week 8): −52.28 (6.33) %
- ISS7 Change difference for rilzabrutinib vs. placebo LS Mean (95% CI) (400 mg BID, Week 8): −2.73 (−5.33, −0.13)
- ISS7 Change from baseline LS Mean (SE) (400 mg BID, Week 8): −8.18 (0.97)
- ISS7 % Change difference for rilzabrutinib vs. placebo LS Mean (95% CI) (400 mg BID, Week 9): −21.48 (−38.50, −4.47) %
- ISS7 % Change from baseline LS Mean (SE) (400 mg BID, Week 9): −51.40 (6.37) %
- ISS7 Change difference for rilzabrutinib vs. placebo LS Mean (95% CI) (400 mg BID, Week 9): −2.86 (−5.51, −0.21)
- ISS7 Change from baseline LS Mean (SE) (400 mg BID, Week 9): −7.98 (0.99)
- ISS7 % Change difference for rilzabrutinib vs. placebo LS Mean (95% CI) (400 mg BID, Week 10): −13.98 (−31.91, 3.95) %
- ISS7 % Change from baseline LS Mean (SE) (400 mg BID, Week 10): −49.04 (6.78) %
- ISS7 Change difference for rilzabrutinib vs. placebo LS Mean (95% CI) (400 mg BID, Week 10): −2.19 (−4.95, 0.57)
- ISS7 Change from baseline LS Mean (SE) (400 mg BID, Week 10): −7.86 (1.04)
- ISS7 % Change difference for rilzabrutinib vs. placebo LS Mean (95% CI) (400 mg BID, Week 11): −17.79 (−35.67, 0.10) %
- ISS7 % Change from baseline LS Mean (SE) (400 mg BID, Week 11): −49.26 (6.74) %
- ISS7 Change difference for rilzabrutinib vs. placebo LS Mean (95% CI) (400 mg BID, Week 11): −2.38 (−5.10, 0.33)
- ISS7 Change from baseline LS Mean (SE) (400 mg BID, Week 11): −7.71 (1.02)
- ISS7 % Change difference for rilzabrutinib vs. placebo LS Mean (95% CI) (400 mg BID, Week 12): −14.72 (−32.82, 3.38) %
- ISS7 % Change from baseline LS Mean (SE) (400 mg BID, Week 12): −49.36 (6.89) %
- ISS7 Change difference for rilzabrutinib vs. placebo LS Mean (95% CI) (400 mg BID, Week 12): −2.05 (−4.84, 0.74)
- ISS7 Change from baseline LS Mean (SE) (400 mg BID, Week 12): −7.76 (1.06)
- ISS7 % Change difference for rilzabrutinib vs. placebo LS Mean (95% CI) (400 mg QPM, Week 1): −8.32 (−26.56, 9.93) %
- ISS7 % Change from baseline LS Mean (SE) (400 mg QPM, Week 1): −18.50 (5.54) %
- ISS7 Change difference for rilzabrutinib vs. placebo LS Mean (95% CI) (400 mg QPM, Week 1): −1.34 (−3.99, 1.31)
- ISS7 Change from baseline LS Mean (SE) (400 mg QPM, Week 1): −3.30 (0.81)
- ISS7 % Change difference for rilzabrutinib vs. placebo LS Mean (95% CI) (400 mg QPM, Week 2): −5.38 (−19.96, 9.19) %
- ISS7 % Change from baseline LS Mean (SE) (400 mg QPM, Week 2): −24.02 (5.36) %
- ISS7 Change difference for rilzabrutinib vs. placebo LS Mean (95% CI) (400 mg QPM, Week 2): −0.80 (−2.97, 1.37)
- ISS7 Change from baseline LS Mean (SE) (400 mg QPM, Week 2): −4.05 (0.80)
- ISS7 % Change difference for rilzabrutinib vs. placebo LS Mean (95% CI) (400 mg QPM, Week 3): −8.25 (−23.04, 6.55) %
- ISS7 % Change from baseline LS Mean (SE) (400 mg QPM, Week 3): −29.09 (5.42) %
- ISS7 Change difference for rilzabrutinib vs. placebo LS Mean (95% CI) (400 mg QPM, Week 3): −1.30 (−3.54, 0.94)
- ISS7 Change from baseline LS Mean (SE) (400 mg QPM, Week 3): −4.94 (0.82)
- ISS7 % Change difference for rilzabrutinib vs. placebo LS Mean (95% CI) (400 mg QPM, Week 4): −6.69 (−22.35, 8.98) %
- ISS7 % Change from baseline LS Mean (SE) (400 mg QPM, Week 4): −30.05 (5.74) %
- ISS7 Change from baseline LS Mean (SE) (400 mg QPM, Week 4): −5.14 (0.87)
- ISS7 % Change difference for rilzabrutinib vs. placebo LS Mean (95% CI) (400 mg QPM, Week 5): 1.87 (−13.30, 17.05) %
- ISS7 % Change from baseline LS Mean (SE) (400 mg QPM, Week 5): −32.18 (5.54) %
- ISS7 Change difference for rilzabrutinib vs. placebo LS Mean (95% CI) (400 mg QPM, Week 5): 0.20 (−2.17, 2.58)
- ISS7 Change from baseline LS Mean (SE) (400 mg QPM, Week 5): −5.44 (0.87)
- ISS7 % Change difference for rilzabrutinib vs. placebo LS Mean (95% CI) (400 mg QPM, Week 6): −8.22 (−24.84, 8.40) %
- ISS7 % Change from baseline LS Mean (SE) (400 mg QPM, Week 6): −36.45 (6.05) %

— patent US20260256792A1, “TREATMENT OF CHRONIC SPONTANEOUS URTICARIA BY ADMINISTERING (R)-2-[3-[4-AMINO-3-(2-FLUORO-4-PHENOXY-PHENYL)PYRAZOLO[3,4-D]PYRIMIDIN-1-YL]PIPERIDINE-1-CARBONYL]-4-METHYL-4-[4-(OXETAN-3-YL)PIPERAZIN-1-YL]PENT-2-ENENITRILE” (priority 2023, published 2026)
